The assay addresses T1, GFP-SMAD4, Q13485.
T1 chain: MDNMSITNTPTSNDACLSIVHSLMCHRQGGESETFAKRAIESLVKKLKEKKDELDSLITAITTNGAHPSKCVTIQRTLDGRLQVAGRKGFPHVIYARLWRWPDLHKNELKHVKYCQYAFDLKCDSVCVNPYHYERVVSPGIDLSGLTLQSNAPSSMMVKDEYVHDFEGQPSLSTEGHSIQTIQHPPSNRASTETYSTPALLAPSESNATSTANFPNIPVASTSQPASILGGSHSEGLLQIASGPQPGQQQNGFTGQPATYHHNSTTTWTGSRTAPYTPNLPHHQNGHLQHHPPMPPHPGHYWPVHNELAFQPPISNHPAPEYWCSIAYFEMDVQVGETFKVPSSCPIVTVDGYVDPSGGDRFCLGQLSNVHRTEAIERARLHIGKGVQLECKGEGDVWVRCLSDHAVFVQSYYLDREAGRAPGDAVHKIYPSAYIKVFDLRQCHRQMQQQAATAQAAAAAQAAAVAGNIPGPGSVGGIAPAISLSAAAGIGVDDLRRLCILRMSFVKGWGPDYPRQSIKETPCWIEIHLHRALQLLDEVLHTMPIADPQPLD
As to the kind of experiment: co-IP; GFP immunoprecipitation from lysates of U2OS cells stably expressing GFP-SMAD4; cells incubated with DMSO, SB-505124 or MRT199665, with or without TGFβ1; immunoblotting of the precipitates. The note with it: remark: other sources report otherwise. On the technique in general: In western blotting, separated proteins are transferred to a membrane and probed.

The source of these data is paper PMC6976658.

No constants are given. Whether binding was seen depends on the method and setting. Binding seen in cells or lysates may run through a third protein. Some results given as binding are weak or reduced against the parent protein; the word gives no strength. Tags and fused reporters may be left off the sequences shown.

B1: SMAD3, P84022 1-425 (protein)
chain: MSSILPFTPPIVKRLLGWKKGEQNGQEEKWCEKAVKSLVKKLKKTGQLDELEKAITTQNVNTKCITIPRSLDGRLQVSHRKGLPHVIYCRLWRWPDLHSHHELRAMELCEFAFNMKKDEVCVNPYHYQRVETPVLPPVLVPRHTEIPAEFPPLDDYSHSIPENTNFPAGIEPQSNIPETPPPGYLSEDGETSDHQMNHSMDAGSPNLSPNPMSPAHNNLDLQPVTYCEPAFWCSISYYELNQRVGETFHASQPSMTVDGFTDPSNSERFCLGLLSNVNRNAAVELTRRHIGRGVRLYYIGGEVFAECLSDSAIFVQSPNCNQRYGWHPATVCKIPPGCNLKIFNNQEFAALLAQSVNQGFEAVYQLTRMCTIRMSFVKGWGAEYRRQTVTSTPCWIELHLNGPLQWLDKVLTQMGSPSIRCSSVS
Turning to B1, the binding result is recorded as “binds”.

B2: SMAD2, Q15796 1-467 (protein)
chain: MSSILPFTPPVVKRLLGWKKSAGGSGGAGGGEQNGQEEKWCEKAVKSLVKKLKKTGRLDELEKAITTQNCNTKCVTIPSTCSEIWGLSTPNTIDQWDTTGLYSFSEQTRSLDGRLQVSHRKGLPHVIYCRLWRWPDLHSHHELKAIENCEYAFNLKKDEVCVNPYHYQRVETPVLPPVLVPRHTEILTELPPLDDYTHSIPENTNFPAGIEPQSNYIPETPPPGYISEDGETSDQQLNQSMDTGSPAELSPTTLSPVNHSLDLQPVTYSEPAFWCSIAYYELNQRVGETFHASQPSLTVDGFTDPSNSERFCLGLLSNVNRNATVEMTRRHIGRGVRLYYIGGEVFAECLSDSAIFVQSPNCNQRYGWHPATVCKIPPGCNLKIFNNQEFAALLAQSVNQGFEAVYQLTRMCTIRMSFVKGWGAEYRRQTVTSTPCWIELHLNGPLQWLDKVLTQMGSPSVRCSSMS
B2: the binding entry is “binds”.
